Structures can show the parent of a compound that is named as a salt. At least one compound was matched to its structure with a doubt left.
Test system: isolated portal vein
Experiment: Isolated rat's portal vein (Berti), increase in tonus
Settings: in words
Description: (2) Isolated rat's portal vein
The tests on the rat's portal vein, an organ with its own rhythm, were performed according to the method of Berti et al (Arch. int. Pharmacodyn. 184 (1970), page 328). In Table 4, the increase in tonus at various adrenalin concentrations is given in milligrams. As a comparison, the values for the known substance heptaminol (=6-amino-2-methylheptane-2-ol) are also given.

CCCCCC(C)NCc1c(C)cc(C)cc1C (stereo not shown) [Serial No. 2, 2-(2,4,6-Trimethylbenzyl)-aminoheptane hydrochloride]
Increase in vasotonus compared with heptaminol: distinctly stronger increase in vasotonus than the comparison substance heptaminol
